These are yes or no findings as the source states them, for the method shown. In cells and extracts the contact can be indirect. Some entries that bind do so weakly or less than the wild type.
Legend:
Assay in all cases: pull-down; His- and MBP-tagged eIF4E from E. coli lysate held on HisPur Ni-NTA magnetic beads (1 h, 4 °C), then soluble fraction of E. coli lysate with MBP-tagged 4EBM (1 h, 4 °C); 50 mM Tris-HCl pH 7.5, 100 mM NaCl, 1 mM DTT, 20 mM imidazole, 0.01% Tween-20; eluted with 500 mM imidazole; SDS-PAGE, Coomassie, quantified with Fiji
[1] = target: T1, mouse eIF4E1B (63-244) (mouse) (UniProt Q3UTA9)
T1 sequence: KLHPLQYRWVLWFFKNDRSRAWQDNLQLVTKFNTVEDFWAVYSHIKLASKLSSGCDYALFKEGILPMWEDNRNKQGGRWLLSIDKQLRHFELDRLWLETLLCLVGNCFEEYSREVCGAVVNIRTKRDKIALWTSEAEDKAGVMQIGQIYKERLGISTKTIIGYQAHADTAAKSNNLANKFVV

Protein sequences, listed by entry. Tags and fused reporters are not part of them. Residues count along the entry.
UniProt Q9DFS6, residues 34-215: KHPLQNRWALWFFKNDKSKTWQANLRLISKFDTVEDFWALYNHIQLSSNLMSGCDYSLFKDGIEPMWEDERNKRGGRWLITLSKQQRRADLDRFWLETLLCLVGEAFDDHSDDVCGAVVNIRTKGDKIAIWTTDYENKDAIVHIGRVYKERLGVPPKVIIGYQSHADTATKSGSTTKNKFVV
UniProt Q13541, residues 50-83: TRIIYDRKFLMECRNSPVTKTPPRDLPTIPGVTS

[2] = target: T2, human eIF4E1B (60-242) (human) (UniProt A6NMX2)
T2 sequence: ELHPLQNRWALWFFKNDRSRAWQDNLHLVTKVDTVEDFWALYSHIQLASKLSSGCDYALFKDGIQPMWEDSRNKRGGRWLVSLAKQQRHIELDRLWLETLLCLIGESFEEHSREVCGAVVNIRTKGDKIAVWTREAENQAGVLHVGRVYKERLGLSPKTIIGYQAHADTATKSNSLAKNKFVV

[3] = target: zebrafish eIF4Ea (34-215) (zebrafish) (UniProt Q9DFS6)
[4] = target: T3, mouse eIF4E1B (63-244) Lys112 to Asn (mouse) (UniProt Q3UTA9)
T3 sequence: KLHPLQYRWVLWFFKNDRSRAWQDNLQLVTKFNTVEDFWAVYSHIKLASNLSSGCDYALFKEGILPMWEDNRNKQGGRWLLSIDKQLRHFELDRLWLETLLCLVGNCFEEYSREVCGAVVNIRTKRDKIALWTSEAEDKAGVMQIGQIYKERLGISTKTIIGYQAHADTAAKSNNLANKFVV

[5] = target: T4, mouse eIF4E1B (63-244) Lys108 to Glu (mouse) (UniProt Q3UTA9)
T4 sequence: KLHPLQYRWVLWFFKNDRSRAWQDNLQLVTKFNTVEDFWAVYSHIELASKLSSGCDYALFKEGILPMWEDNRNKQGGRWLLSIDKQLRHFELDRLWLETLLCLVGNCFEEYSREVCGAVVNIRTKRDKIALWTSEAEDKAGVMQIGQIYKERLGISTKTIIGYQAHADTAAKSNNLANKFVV

Measured: binding

eIF4E-binding motif of human eIF4EBP1 (50-83) (from UniProt Q13541 50-83) (domain or fragment)
binds: [1] | [2] | [3]

PHRYTKEELLDIKELPHSKQRPSCLSEKYDSDGVWDP (domain or fragment, UniProt Q9NRA8 27-63) [eIF4E-binding motif of human eIF4ENIF1 (27-63)]
binds: all assays above

From article PMC10883267 (2023)
